Reference: PubChem BioAssay AID504808 (Drosophila RNAi Screening Center, 2011)
The deposit covers about 21,000 reagents; this is an unselected part of those with a known target gene and a result. Over the whole deposit, 18 (0.084%) are marked active. 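Raw counts without plate normalisation, one of two replicates; the ratio scores behind the calls were not deposited.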 Unmarked entries are inactive. No sequences are given here. The record does not give: the amount of reagent, the time to read-out.

Assay: 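Chromatin factors that keep E2F targets switched off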 (primary screen)
Cells: Drosophila S2 cells
Reagent: long dsRNA against Drosophila genes
Detection: 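Firefly luciferase driven by E2F sites, normalised to Renilla luciferase on the same minimal promoter, measured by plate reader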
Direction: E2F firefly: higher = more E2F reporter activity; Renilla normaliser: higher = more normaliser reporter signal
Active means: 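Called active if the normalised E2F reporter went up by over 50%; the cutoff is arbitrary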

After knock-down of CG34331 [DRSC20679], the screen gave E2F firefly, rep 1 = 1.32e5; Renilla normaliser, rep 1 = 6523. For Vps52 (Vacuolar protein sorting 52) [DRSC03050], the values are E2F firefly, rep 1 = 1.51e5; Renilla normaliser, rep 1 = 4933. Depletion of CG12432 (retired record) [DRSC19455] came out at: E2F firefly, rep 1 = 1.51e5; Renilla normaliser, rep 1 = 7185. With knock-down of CG34451 [DRSC09388] the results were E2F firefly, rep 1 = 1.59e5; Renilla normaliser, rep 1 = 3624. Silencing of CG34451 [DRSC09389] came out at: E2F firefly, rep 1 = 1.41e5; Renilla normaliser, rep 1 = 4060. Against Idgf6 (Imaginal disc growth factor 6) [DRSC07360], the values are E2F firefly, rep 1 = 75280; Renilla normaliser, rep 1 = 3283.

Depletion of MED28 (Mediator complex subunit 28) [DRSC15721] resulted in: E2F firefly, rep 1 = 83831; Renilla normaliser, rep 1 = 5322. Silencing of Strump (Strumpellin) [DRSC09872] resulted in: E2F firefly, rep 1 = 1.45e5; Renilla normaliser, rep 1 = 8529. vir (virilizer) [DRSC04377] gave E2F firefly, rep 1 = 1.05e5; Renilla normaliser, rep 1 = 4700. CG34136 [DRSC01833] scored E2F firefly, rep 1 = 1.17e5; Renilla normaliser, rep 1 = 5032. For CG30398 [DRSC03891], the entry reads E2F firefly, rep 1 = 1.17e5; Renilla normaliser, rep 1 = 4790. Silencing of CG6094 [DRSC02927] resulted in: E2F firefly, rep 1 = 75391; Renilla normaliser, rep 1 = 3051.

After knock-down of Mccc1 (Methylcrotonoyl-CoA carboxylase 1) [DRSC15417], the screen gave E2F firefly, rep 1 = 1863; Renilla normaliser, rep 1 = 1016. Brca2 (BRCA2, DNA repair associated) [DRSC04219] showed E2F firefly, rep 1 = 99932; Renilla normaliser, rep 1 = 4470. With knock-down of Brca2 (BRCA2, DNA repair associated) [DRSC04220], the screen gave E2F firefly, rep 1 = 1.23e5; Renilla normaliser, rep 1 = 5138. With knock-down of Coq6 (Coenzyme Q6) [DRSC03040] the results were E2F firefly, rep 1 = 76457; Renilla normaliser, rep 1 = 3535. Depletion of flfl (falafel) [DRSC16474] resulted in: E2F firefly, rep 1 = 68078; Renilla normaliser, rep 1 = 2870. achi (achintya) [DRSC07276] gave E2F firefly, rep 1 = 92457; Renilla normaliser, rep 1 = 4198.

CG12460 (retired record) [DRSC20970] scored E2F firefly, rep 1 = 1.35e5; Renilla normaliser, rep 1 = 5935. Depletion of CG12560 [DRSC02174] resulted in: E2F firefly, rep 1 = 1.51e5; Renilla normaliser, rep 1 = 5770. Against CG15042 [DRSC19618], the values are E2F firefly, rep 1 = 1.48e5; Renilla normaliser, rep 1 = 5337. Sap-r (Saposin-related) [DRSC16849] scored E2F firefly, rep 1 = 89774; Renilla normaliser, rep 1 = 940. CG9368 [DRSC11067] gave E2F firefly, rep 1 = 79981; Renilla normaliser, rep 1 = 3528. Silencing of fz2 (frizzled 2) [DRSC09595] gave: E2F firefly, rep 1 = 65297; Renilla normaliser, rep 1 = 2637.

fz2 (frizzled 2) [DRSC10087] gave E2F firefly, rep 1 = 75921; Renilla normaliser, rep 1 = 3914. fz2 (frizzled 2) [DRSC11349] showed E2F firefly, rep 1 = 1.25e5; Renilla normaliser, rep 1 = 6294. gem (gemini) [DRSC06093] gave E2F firefly, rep 1 = 2663; Renilla normaliser, rep 1 = 243. After knock-down of gem (gemini) [DRSC06847], the screen gave E2F firefly, rep 1 = 1.45e5; Renilla normaliser, rep 1 = 4782.

Records listed so far whose target name starts with F or f:
flfl (falafel) [DRSC16474] — E2F firefly, rep 1 = 68078; Renilla normaliser, rep 1 = 2870
fz2 (frizzled 2) [DRSC09595] — E2F firefly, rep 1 = 65297; Renilla normaliser, rep 1 = 2637
fz2 (frizzled 2) [DRSC10087] — E2F firefly, rep 1 = 75921; Renilla normaliser, rep 1 = 3914
fz2 (frizzled 2) [DRSC11349] — E2F firefly, rep 1 = 1.25e5; Renilla normaliser, rep 1 = 6294
